Results published in patent US9034323B2, “Method for control of post-prandial glucose” (Halozyme, Inc., priority 2008, dated 2015).

Assay: C-terminal heterogeneity of soluble rHuPH20, endoproteinase Asp-N digestion (Example 8)
[1] = C-terminal fragments from Lot HUA0505MA (3D35M cells)
[2] = C-terminal fragments from Lot HUB0701EB (2B2 cells)

| Substance | Abundance [1] | Abundance [2] |
| --- | --- | --- |
| D28a (DAFKLPPMETEEPQIFY; C-terminal peptide cleaved from soluble rHuPH20 aa 431-447; listed as Homo sapiens) | 0.2% | 1.9% |
| D28e (DAFKLPPMETEEP; C-terminal peptide cleaved from soluble rHuPH20 aa 431-443; listed as Homo sapiens) | 13.6% | 6.9% |
| D28b (DAFKLPPMETEEPQIF; C-terminal peptide cleaved from soluble rHuPH20 aa 431-446; listed as Homo sapiens) | 18.4% | 46.7% |
| D28f (DAFKLPPMETEE; C-terminal peptide cleaved from soluble rHuPH20 aa 431-442; listed as Homo sapiens) | 0.0% | 0.0% |
| D28c (DAFKLPPMETEEPQI; C-terminal peptide cleaved from soluble rHuPH20 aa 431-445; listed as Homo sapiens) | 11.8% | 16.7% |
| D28d (DAFKLPPMETEEPQ; C-terminal peptide cleaved from soluble rHuPH20 aa 431-444; listed as Homo sapiens) | 56.1% | 27.8% |
